No constants are given. Whether binding was seen depends on the method and setting. Binding can be weak; no strength is given.
Target: biotinylated recombinant human LRP-1 Cluster II Fc Chimera protein (R&D Systems) (human) (UniProt Q07954)
Assay: SPR (BIAcore T200, 37 C), biotinylated LRP-1 Cluster II Fc on NeutrAvidin C1 chip, fl-TFPI with 1 uM BAX 499

Amino acid sequences for entries named in this document (tags omitted). A change or cut given only in a name is not applied to a line headed by its entry. Residues count along the entry.
UniProt Q07954, residues 805-1184: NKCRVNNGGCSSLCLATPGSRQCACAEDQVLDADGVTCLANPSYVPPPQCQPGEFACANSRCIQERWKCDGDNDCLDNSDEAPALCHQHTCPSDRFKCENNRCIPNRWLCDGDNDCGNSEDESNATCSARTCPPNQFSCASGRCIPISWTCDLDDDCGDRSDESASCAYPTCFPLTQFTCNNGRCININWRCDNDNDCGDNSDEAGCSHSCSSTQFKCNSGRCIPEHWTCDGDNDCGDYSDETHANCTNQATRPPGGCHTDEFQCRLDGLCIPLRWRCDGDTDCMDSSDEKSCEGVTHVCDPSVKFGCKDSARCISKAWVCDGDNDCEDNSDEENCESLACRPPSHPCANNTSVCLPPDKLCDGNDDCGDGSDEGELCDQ
UniProt P10646: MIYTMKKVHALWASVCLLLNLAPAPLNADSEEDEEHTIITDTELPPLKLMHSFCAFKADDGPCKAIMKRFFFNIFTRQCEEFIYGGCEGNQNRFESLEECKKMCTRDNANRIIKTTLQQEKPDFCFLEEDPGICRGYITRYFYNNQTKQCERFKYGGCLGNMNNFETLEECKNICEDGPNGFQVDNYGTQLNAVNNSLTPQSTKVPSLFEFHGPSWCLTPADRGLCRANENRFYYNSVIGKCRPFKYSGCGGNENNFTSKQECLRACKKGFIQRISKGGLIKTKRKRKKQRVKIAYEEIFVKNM

- binding: binds
Substance: fl-TFPI complexed to BAX 499 (from UniProt P10646)

From patent US20130267584A1
